The text below walks through data of publication PMC4588883.

These are yes or no findings as the source states them, for the method shown. In cells and extracts the contact can be indirect. Some binding calls cover weakened binding; strength is not graded here. Tags and fused reporters may be left off the sequences shown.

Assay [1] deals with T1, haemagglutinin-fused NSN1 (NSN1:HA) (Arabidopsis thaliana) (UniProt Q9M8Z5).
T1 sequence: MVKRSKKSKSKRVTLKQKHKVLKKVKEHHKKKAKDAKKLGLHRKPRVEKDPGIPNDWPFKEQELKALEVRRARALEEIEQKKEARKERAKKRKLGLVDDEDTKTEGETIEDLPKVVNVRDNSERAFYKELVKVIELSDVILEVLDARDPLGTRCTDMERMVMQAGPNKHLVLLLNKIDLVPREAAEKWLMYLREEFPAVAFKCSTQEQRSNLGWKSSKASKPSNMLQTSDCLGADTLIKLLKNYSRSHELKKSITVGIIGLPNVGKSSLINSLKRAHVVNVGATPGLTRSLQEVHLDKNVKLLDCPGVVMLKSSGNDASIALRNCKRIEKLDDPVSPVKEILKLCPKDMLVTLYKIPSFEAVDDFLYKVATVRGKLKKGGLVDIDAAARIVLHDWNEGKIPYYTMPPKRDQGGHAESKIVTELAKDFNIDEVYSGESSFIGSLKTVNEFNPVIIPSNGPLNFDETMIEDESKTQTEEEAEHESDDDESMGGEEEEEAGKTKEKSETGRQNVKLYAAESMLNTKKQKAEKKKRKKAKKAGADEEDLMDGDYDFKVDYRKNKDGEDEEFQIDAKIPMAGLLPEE
As to the kind of experiment: co-IP; extracts of N. benthamiana leaves co-expressing the tagged proteins; immunoprecipitation with anti-HA antibody, immunoblotting with anti-Flag or anti-Myc antibodies. A general note: Immunoblotting shows a protein as a band on a membrane.

Assay [2] concerns the target T2, Arabidopsis Pescadillo (PES), YFP^N or YFP^C fusion for BiFC (Arabidopsis) (UniProt Q9LYK7).
T2 sequence: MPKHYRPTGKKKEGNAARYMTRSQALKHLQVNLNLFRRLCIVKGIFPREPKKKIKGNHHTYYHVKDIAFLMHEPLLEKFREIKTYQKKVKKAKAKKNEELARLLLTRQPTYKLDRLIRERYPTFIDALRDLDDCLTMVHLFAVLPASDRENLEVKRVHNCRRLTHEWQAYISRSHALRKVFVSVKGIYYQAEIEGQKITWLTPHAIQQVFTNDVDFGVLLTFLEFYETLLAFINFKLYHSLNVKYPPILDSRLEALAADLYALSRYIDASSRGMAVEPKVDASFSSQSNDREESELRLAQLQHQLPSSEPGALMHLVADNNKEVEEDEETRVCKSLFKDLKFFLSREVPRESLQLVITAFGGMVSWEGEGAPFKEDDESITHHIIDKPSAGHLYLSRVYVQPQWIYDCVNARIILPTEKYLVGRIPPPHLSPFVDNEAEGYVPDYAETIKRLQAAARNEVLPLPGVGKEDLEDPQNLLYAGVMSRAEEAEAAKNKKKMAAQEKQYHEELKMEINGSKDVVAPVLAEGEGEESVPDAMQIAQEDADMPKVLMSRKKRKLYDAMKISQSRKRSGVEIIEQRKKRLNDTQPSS
As to the kind of experiment: split reporter; BiFC: proteins co-expressed as YFP^N and YFP^C fusions in N. benthamiana leaves by agroinfiltration; after 48 h protoplasts observed by confocal laser scanning microscopy.

Assay [3] concerns the target T3, N-terminal domain of NSN1 (NSN1-N; amino acids 1-174), BiFC fusion (Arabidopsis thaliana) (UniProt Q9M8Z5).
T3 sequence: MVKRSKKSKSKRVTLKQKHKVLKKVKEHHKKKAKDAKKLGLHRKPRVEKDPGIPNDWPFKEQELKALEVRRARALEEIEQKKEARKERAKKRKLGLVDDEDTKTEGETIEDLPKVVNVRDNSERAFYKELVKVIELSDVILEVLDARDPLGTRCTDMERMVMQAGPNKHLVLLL
Described as above.

In assay [4] the target is T4, NSN1 lacking the N-terminal 94 amino acids (∆N), BiFC fusion (Arabidopsis thaliana) (UniProt Q9M8Z5).
T4 sequence: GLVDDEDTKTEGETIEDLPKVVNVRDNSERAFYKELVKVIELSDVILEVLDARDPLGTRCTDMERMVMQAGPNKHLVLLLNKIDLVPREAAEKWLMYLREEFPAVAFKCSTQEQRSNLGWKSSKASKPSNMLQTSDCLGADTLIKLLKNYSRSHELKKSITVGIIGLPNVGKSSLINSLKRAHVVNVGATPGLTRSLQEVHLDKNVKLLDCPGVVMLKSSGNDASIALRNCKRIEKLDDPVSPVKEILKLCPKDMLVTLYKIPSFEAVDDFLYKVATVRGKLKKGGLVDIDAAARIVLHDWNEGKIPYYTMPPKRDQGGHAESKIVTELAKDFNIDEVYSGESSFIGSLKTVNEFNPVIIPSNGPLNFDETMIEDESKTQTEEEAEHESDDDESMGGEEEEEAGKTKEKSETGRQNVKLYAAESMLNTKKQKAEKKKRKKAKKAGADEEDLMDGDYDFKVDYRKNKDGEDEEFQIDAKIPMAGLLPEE
The description is as above.

Assay [5] deals with T5, nucleostemin-like 1 (NSN1), YFP^N or YFP^C fusion for BiFC (Arabidopsis thaliana) (UniProt Q9M8Z5).
T5 sequence: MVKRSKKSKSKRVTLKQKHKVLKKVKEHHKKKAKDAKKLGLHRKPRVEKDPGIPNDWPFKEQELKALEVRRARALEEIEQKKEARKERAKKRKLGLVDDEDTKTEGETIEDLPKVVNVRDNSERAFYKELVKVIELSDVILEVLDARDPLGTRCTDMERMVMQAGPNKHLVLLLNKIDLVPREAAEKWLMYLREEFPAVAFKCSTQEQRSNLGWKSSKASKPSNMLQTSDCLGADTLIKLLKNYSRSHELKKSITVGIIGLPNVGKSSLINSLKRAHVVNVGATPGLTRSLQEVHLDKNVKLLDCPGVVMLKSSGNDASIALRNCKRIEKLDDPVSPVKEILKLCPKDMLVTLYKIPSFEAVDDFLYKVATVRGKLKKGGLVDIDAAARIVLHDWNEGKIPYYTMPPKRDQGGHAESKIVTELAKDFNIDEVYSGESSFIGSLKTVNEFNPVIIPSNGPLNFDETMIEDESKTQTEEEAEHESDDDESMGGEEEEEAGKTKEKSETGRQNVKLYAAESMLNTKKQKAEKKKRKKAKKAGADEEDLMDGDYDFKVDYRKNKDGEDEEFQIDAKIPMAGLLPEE
Described as above.

B1: Myc-fused EBP2 (Myc:EBP2) (protein, UniProt Q9LUJ5 1-293)
chain: MSLEEDIVSDDEMNMIDEDDATDSEAESLSDSDTENEITEKLAEPTKTAIYNRDGLLDKLQDISWPEDVDWTHKLTVEIDQGGAVDVNDDLARETAFYTQALEGTREAFGKLNEMGVNFLRPANYYAEMVKSDVHMEKVKSRLLHEKKQIEESEERRKARDNKRMAKEVQSQKMKERAKEKKDNIESVKKWRKQRQQSGFSDKAGEPELDFESGKSFQRGGGKKRPGVSPGDRSGGKGRPTSRMGNKKREFRDSKFGHGGRKGLSKQNTAETTNDFKGGFRGGKASGNKRQKR
For the molecule B1, the binding result in assay [1] is listed as “binds”.

B2: EBNA1 binding protein 2 (EBP2), YFP^N or YFP^C fusion for BiFC (protein, UniProt Q9LUJ5 1-293)
chain: MSLEEDIVSDDEMNMIDEDDATDSEAESLSDSDTENEITEKLAEPTKTAIYNRDGLLDKLQDISWPEDVDWTHKLTVEIDQGGAVDVNDDLARETAFYTQALEGTREAFGKLNEMGVNFLRPANYYAEMVKSDVHMEKVKSRLLHEKKQIEESEERRKARDNKRMAKEVQSQKMKERAKEKKDNIESVKKWRKQRQQSGFSDKAGEPELDFESGKSFQRGGGKKRPGVSPGDRSGGKGRPTSRMGNKKREFRDSKFGHGGRKGLSKQNTAETTNDFKGGFRGGKASGNKRQKR
On to B2, for which the binding entry in assay [2], in assay [3], in assay [4] and in assay [5] was “binds” in each case.

B3: Arabidopsis Pescadillo (PES), YFP^N or YFP^C fusion for BiFC (protein, UniProt Q9LYK7 1-590)
chain: MPKHYRPTGKKKEGNAARYMTRSQALKHLQVNLNLFRRLCIVKGIFPREPKKKIKGNHHTYYHVKDIAFLMHEPLLEKFREIKTYQKKVKKAKAKKNEELARLLLTRQPTYKLDRLIRERYPTFIDALRDLDDCLTMVHLFAVLPASDRENLEVKRVHNCRRLTHEWQAYISRSHALRKVFVSVKGIYYQAEIEGQKITWLTPHAIQQVFTNDVDFGVLLTFLEFYETLLAFINFKLYHSLNVKYPPILDSRLEALAADLYALSRYIDASSRGMAVEPKVDASFSSQSNDREESELRLAQLQHQLPSSEPGALMHLVADNNKEVEEDEETRVCKSLFKDLKFFLSREVPRESLQLVITAFGGMVSWEGEGAPFKEDDESITHHIIDKPSAGHLYLSRVYVQPQWIYDCVNARIILPTEKYLVGRIPPPHLSPFVDNEAEGYVPDYAETIKRLQAAARNEVLPLPGVGKEDLEDPQNLLYAGVMSRAEEAEAAKNKKKMAAQEKQYHEELKMEINGSKDVVAPVLAEGEGEESVPDAMQIAQEDADMPKVLMSRKKRKLYDAMKISQSRKRSGVEIIEQRKKRLNDTQPSS
For B3, the binding entry in assay [3], in assay [4] and in assay [5] was “binds” in each case.

B4: Flag-fused PES (PES:Flag) (protein, UniProt Q9LYK7 1-590)
chain: MPKHYRPTGKKKEGNAARYMTRSQALKHLQVNLNLFRRLCIVKGIFPREPKKKIKGNHHTYYHVKDIAFLMHEPLLEKFREIKTYQKKVKKAKAKKNEELARLLLTRQPTYKLDRLIRERYPTFIDALRDLDDCLTMVHLFAVLPASDRENLEVKRVHNCRRLTHEWQAYISRSHALRKVFVSVKGIYYQAEIEGQKITWLTPHAIQQVFTNDVDFGVLLTFLEFYETLLAFINFKLYHSLNVKYPPILDSRLEALAADLYALSRYIDASSRGMAVEPKVDASFSSQSNDREESELRLAQLQHQLPSSEPGALMHLVADNNKEVEEDEETRVCKSLFKDLKFFLSREVPRESLQLVITAFGGMVSWEGEGAPFKEDDESITHHIIDKPSAGHLYLSRVYVQPQWIYDCVNARIILPTEKYLVGRIPPPHLSPFVDNEAEGYVPDYAETIKRLQAAARNEVLPLPGVGKEDLEDPQNLLYAGVMSRAEEAEAAKNKKKMAAQEKQYHEELKMEINGSKDVVAPVLAEGEGEESVPDAMQIAQEDADMPKVLMSRKKRKLYDAMKISQSRKRSGVEIIEQRKKRLNDTQPSS
On to B4, for which the binding entry in assay [1] is “binds”.
